No constants are given. Whether binding was seen depends on the method and setting. Binding seen in cells or lysates may run through a third protein. Some binding calls cover weakened binding; strength is not graded here.

Chains of the proteins cited; added tags and fusions are not shown.
UniProt Q15648: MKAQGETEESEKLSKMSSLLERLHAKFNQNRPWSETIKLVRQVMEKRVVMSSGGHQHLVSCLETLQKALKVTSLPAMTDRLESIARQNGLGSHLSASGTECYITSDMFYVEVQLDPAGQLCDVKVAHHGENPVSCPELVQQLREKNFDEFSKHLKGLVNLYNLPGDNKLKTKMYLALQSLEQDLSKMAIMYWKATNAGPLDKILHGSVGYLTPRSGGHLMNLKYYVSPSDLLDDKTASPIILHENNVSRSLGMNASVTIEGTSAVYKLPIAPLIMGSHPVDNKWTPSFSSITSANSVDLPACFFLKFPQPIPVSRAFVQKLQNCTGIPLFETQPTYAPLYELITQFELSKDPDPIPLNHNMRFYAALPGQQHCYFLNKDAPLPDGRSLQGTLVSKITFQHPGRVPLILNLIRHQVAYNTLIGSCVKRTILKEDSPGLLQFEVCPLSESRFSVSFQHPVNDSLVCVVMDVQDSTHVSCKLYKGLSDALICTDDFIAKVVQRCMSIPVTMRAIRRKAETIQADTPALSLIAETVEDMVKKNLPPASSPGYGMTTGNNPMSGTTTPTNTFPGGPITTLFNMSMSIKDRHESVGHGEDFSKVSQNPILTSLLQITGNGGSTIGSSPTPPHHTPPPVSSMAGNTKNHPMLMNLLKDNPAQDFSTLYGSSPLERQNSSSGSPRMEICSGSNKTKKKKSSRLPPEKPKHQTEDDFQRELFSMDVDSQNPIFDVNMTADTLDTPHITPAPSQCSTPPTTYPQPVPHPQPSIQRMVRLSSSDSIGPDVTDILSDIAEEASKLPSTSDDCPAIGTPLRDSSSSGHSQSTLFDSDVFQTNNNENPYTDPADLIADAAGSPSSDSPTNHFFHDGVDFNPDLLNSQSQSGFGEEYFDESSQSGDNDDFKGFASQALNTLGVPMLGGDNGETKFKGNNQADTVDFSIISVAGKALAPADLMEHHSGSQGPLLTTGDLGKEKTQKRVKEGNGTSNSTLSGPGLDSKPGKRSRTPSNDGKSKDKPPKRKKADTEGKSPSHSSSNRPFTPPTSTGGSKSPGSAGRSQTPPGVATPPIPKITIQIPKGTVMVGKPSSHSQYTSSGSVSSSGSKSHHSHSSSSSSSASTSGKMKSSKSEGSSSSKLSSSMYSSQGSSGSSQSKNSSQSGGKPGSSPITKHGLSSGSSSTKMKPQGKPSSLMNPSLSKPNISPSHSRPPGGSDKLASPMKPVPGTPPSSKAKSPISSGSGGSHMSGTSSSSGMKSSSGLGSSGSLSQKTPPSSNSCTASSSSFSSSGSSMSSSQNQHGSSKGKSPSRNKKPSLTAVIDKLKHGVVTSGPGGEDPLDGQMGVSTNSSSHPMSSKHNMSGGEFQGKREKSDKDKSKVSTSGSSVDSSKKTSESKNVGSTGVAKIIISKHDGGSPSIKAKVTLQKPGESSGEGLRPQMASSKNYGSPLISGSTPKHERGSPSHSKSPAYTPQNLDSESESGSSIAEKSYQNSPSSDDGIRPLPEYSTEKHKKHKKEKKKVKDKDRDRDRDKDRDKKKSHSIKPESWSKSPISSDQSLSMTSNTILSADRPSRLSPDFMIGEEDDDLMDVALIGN

What all share (experiment): co-IP; endogenous proteins in lysates of PC9 and A549 cells (20 mmol/L Tris-HCl pH 8.0, 10 mmol/L NaCl, 1 mmol/L EDTA, 0.5% NP-40); antibody or control IgG overnight at 4 °C, Protein G Dynabeads, Western blot; cells with or without silencing of MED13L
A general note: Immunoblotting shows a protein as a band on a membrane.

Experiment [1] concerns the target T1, MED8 (human (endogenous in PC9 and A549)) (UniProt Q96G25).
T1 sequence: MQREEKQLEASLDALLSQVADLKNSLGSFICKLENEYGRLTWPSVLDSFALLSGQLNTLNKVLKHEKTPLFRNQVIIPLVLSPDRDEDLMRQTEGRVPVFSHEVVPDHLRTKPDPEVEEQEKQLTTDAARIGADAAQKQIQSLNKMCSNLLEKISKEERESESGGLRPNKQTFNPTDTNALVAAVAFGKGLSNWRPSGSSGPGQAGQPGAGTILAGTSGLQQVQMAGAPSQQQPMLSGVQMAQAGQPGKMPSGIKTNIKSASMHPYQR

Experiment [2] has as its target T2, MED23 (human (endogenous in PC9 and A549)) (UniProt Q9ULK4).
T2 sequence: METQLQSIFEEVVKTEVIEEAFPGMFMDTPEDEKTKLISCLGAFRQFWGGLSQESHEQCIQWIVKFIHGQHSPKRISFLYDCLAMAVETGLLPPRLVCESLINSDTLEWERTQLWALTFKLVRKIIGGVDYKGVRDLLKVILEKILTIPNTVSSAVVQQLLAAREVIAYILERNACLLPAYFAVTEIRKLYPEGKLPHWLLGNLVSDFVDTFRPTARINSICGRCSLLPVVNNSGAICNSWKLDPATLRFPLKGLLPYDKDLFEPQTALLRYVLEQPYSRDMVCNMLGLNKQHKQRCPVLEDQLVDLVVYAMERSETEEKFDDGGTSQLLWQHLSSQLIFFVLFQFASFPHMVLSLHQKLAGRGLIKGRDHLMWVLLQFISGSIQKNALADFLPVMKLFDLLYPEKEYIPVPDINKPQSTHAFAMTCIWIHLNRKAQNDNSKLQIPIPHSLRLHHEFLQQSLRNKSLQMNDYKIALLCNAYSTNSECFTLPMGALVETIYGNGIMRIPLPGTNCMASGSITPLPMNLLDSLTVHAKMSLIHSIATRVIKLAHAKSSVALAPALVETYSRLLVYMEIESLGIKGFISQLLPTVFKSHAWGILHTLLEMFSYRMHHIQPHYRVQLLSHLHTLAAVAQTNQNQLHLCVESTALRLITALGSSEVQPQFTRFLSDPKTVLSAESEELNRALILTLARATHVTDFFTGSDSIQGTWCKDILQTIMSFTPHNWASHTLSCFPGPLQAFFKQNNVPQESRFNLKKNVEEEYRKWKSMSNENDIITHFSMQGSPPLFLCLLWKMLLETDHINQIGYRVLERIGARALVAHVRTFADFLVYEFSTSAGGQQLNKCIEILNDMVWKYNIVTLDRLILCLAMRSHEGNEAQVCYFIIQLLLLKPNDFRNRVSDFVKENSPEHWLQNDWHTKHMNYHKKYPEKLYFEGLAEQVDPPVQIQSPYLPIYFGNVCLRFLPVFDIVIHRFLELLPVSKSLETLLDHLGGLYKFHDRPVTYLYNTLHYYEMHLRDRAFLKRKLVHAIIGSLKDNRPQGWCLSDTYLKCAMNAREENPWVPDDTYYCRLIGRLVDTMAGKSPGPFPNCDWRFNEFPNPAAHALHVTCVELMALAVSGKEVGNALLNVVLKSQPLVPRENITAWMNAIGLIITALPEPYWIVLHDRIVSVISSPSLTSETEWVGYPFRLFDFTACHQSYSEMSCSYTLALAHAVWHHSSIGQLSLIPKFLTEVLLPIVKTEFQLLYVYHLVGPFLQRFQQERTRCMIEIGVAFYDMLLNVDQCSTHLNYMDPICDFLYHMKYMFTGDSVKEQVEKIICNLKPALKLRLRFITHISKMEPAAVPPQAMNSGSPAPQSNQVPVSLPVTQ

Experiment [3] has as its target T3, MED4 (human (endogenous in PC9 and A549)) (UniProt Q9NPJ6).
T3 sequence: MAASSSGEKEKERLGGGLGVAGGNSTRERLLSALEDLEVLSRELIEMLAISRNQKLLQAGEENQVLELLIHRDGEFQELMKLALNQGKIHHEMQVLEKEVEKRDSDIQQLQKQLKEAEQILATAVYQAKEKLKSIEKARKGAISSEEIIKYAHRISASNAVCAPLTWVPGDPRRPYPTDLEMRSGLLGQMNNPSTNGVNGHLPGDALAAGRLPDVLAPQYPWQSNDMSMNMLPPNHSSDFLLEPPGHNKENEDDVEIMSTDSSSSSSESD

For experiment [4], the target named is MED1 (human (endogenous in PC9 and A549)) (UniProt Q15648).
Experiment [5] deals with MED12 (human (endogenous in PC9 and A549)), Q93074. Particulars: remark: other sources report otherwise.

B1: MED6 (protein, UniProt O75586 1-246)
chain: MAAVDIRDNLLGISWVDSSWIPILNSGSVLDYFSERSNPFYDRTCNNEVVKMQRLTLEHLNQMVGIEYILLHAQEPILFIIRKQQRQSPAQVIPLADYYIIAGVIYQAPDLGSVINSRVLTAVHGIQSAFDEAMSYCRYHPSKGYWWHFKDHEEQDKVRPKAKRKEEPSSIFQRQRVDALLLDLRQKFPPKFVQLKPGEKPVPVDQTKKEAEPIPETVKPEEKETTKNVQQTVSAKGPPEKRMRLQ
For B1, the binding result in experiment [1], in experiment [2], in experiment [3] and in experiment [4] was “binds” throughout.

B2: MED4 (protein, UniProt Q9NPJ6 1-270)
chain: T3 sequence
For B2, the binding result in experiment [2] is given as “binds”.

B3: MED8 (protein, UniProt Q96G25 1-268)
chain: T1 sequence
For the molecule B3, the binding entry in experiment [2], in experiment [3] and in experiment [4] was “binds” each time.

B4: cyclin-dependent kinase 8, P49336 1-464 (protein)
chain: MDYDFKVKLSSERERVEDLFEYEGCKVGRGTYGHVYKAKRKDGKDDKDYALKQIEGTGISMSACREIALLRELKHPNVISLQKVFLSHADRKVWLLFDYAEHDLWHIIKFHRASKANKKPVQLPRGMVKSLLYQILDGIHYLHANWVLHRDLKPANILVMGEGPERGRVKIADMGFARLFNSPLKPLADLDPVVVTFWYRAPELLLGARHYTKAIDIWAIGCIFAELLTSEPIFHCRQEDIKTSNPYHHDQLDRIFNVMGFPADKDWEDIKKMPEHSTLMKDFRRNTYTNCSLIKYMEKHKVKPDSKAFHLLQKLLTMDPIKRITSEQAMQDPYFLEDPLPTSDVFAGCQIPYPKREFLTEEEPDDKGDKKNQQQQQGNNHTNGTGHPGNQDSSHTQGPPLKKVRVVPPTTTSGGLIMTSDYQRSNPHAAYPNPGPSTSQPQSSMGYSATSQQPPQYSHQTHRY
Take B4: the binding result in experiment [5] is reported as “binds”.
